Laboratory results from paper PMC8445599.
Results are given in words; binding and its absence hold for the method and conditions named. In cells and extracts the contact can be indirect. Some entries that bind do so weakly or less than the wild type.

The chains behind the UniProt entries cited, without tags or fusion partners. Residues count along the entry.
UniProt P02545, residues 1-646: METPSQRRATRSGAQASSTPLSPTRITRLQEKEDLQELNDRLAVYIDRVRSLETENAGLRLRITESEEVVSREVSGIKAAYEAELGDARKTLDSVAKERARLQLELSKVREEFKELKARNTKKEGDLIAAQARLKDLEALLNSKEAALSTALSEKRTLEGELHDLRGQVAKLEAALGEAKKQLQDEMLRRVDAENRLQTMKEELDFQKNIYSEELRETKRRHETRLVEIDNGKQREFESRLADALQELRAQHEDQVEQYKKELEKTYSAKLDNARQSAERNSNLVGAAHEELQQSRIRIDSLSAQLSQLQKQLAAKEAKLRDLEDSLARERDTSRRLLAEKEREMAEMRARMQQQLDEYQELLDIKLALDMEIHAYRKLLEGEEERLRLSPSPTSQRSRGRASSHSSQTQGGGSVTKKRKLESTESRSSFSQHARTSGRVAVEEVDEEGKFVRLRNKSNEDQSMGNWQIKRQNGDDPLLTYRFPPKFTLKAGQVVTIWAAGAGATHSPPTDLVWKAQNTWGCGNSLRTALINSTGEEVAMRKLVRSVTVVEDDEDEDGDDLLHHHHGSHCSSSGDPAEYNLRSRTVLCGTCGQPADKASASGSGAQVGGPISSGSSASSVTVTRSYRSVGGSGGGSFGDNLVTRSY

Tests used:
[1] = biological target: lamin A/C (endogenous) (human (endogenous in HeLa)) (UniProt P02545); experiment: co-IP; endogenous proteins; asynchronous HeLa cells; IP with anti-lamin A/C or anti-RepoMan antibody, western blot
[2] = biological target: lamin A/C (endogenous) (human (endogenous in HeLa)) (UniProt P02545); experiment: co-IP; endogenous proteins; HeLa cells arrested in M phase (1 µg/ml nocodazole, 16 h); IP with anti-lamin A/C or anti-RepoMan antibody, western blot
[3] = biological target: lamin A/C (endogenous) (human (endogenous in HeLa)) (UniProt P02545); experiment: co-IP; endogenous proteins; HeLa cells arrested at the G1/S boundary (1.5 mM hydroxyurea, 16 h); IP with anti-lamin A/C or anti-RepoMan antibody, western blot

- binding [1]: binds weakly
- binding [2]: binds
- binding [3]: binds weakly
B1: RepoMan (endogenous) (protein, UniProt Q69YH5 1-1023)
chain: MDANSKDKPPETKESAMNNAGNASFILGTGKIVTPQKHAELPPNPCTPDTFKSPLNFSTVTVEQLGITPESFVRNSAGKSSSYLKKCRRRSAVGARGSPETNHLIRFIARQQNIKNARKSPLAQDSPSQGSPALYRNVNTLRERISAFQSAFHSIKENEKMTGCLEFSEAGKESEMTDLTRKEGLSACQQSGFPAVLSSKRRRISYQRDSDENLTDAEGKVIGLQIFNIDTDRACAVETSVDLSEISSKLGSTQSGFLVEESLPLSELTETSNALKVADCVVGKGSSDAVSPDTFTAEVSSDAVPDVRSPATPACRRDLPTPKTFVLRSVLKKPSVKMCLESLQEHCNNLYDDDGTHPSLISNLPNCCKEKEAEDEENFEAPAFLNMRKRKRVTFGEDLSPEVFDESLPANTPLRKGGTPVCKKDFSGLSSLLLEQSPVPEPLPQPDFDDKGENLENIEPLQVSFAVLSSPNKSSISETLSGTDTFSSSNNHEKISSPKVGRITRTSNRRNQLVSVVEESVCNLLNTEVQPCKEKKINRRKSQETKCTKRALPKKSQVLKSCRKKKGKGKKSVQKSLYGERDIASKKPLLSPIPELPEVPEMTPSIPSIRRLGSGYFSSNGKLEEVKTPKNPVKRKDLLRHDPDLHMHQGYDKYDVSEFCSYIKSSSSLGNATSDEDPNTNIMNINENKNIPKAKNKSESENEPKAGTDSPVSCASVTEERVASDSPKPALTLQQGQEFSAGGQNAENLCQFFKISPDLNIKCERKDDFLGAAEGKLQCNRLMPNSQKDCHCLGDVLIENTKESKSQSEDLGRKPMESSSVVSCRDRKDRRRSMCYSDGRSLHLEKNGNHTPSSSVGSSVEISLENSELFKDLSDAIEQTFQRRNSETKVRRSTRLQKDLENEGLVWISLPLPSTSQKAKRRTICTFDSSGFESMSPIKETVSSRQKPQMAPPVSDPENSQGPAAGSSDEPGKRRKSFCISTLANTKATSQFKGYRRRSSLNGKGESSLTALERIEHNGERKQ
